Results as given in publication PMC8152475 (Biomedicines, 2021).
No constants are given. Whether binding was seen depends on the method and setting. Binding seen in cells or lysates may run through a third protein. Some binding calls cover weakened binding; strength is not graded here. For some assays here: Where a sequence is shown, tags or fusion partners need not be part of it.

Chains of the proteins cited; added tags and fusions are not shown. Residues count along the entry.
UniProt P9WIN9, residues 24-228: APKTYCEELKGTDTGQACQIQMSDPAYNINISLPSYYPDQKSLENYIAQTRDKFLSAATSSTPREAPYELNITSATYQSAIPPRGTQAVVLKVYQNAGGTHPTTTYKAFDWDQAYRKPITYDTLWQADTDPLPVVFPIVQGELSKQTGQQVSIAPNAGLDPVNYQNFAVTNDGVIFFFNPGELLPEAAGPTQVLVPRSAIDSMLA
UniProt P14598: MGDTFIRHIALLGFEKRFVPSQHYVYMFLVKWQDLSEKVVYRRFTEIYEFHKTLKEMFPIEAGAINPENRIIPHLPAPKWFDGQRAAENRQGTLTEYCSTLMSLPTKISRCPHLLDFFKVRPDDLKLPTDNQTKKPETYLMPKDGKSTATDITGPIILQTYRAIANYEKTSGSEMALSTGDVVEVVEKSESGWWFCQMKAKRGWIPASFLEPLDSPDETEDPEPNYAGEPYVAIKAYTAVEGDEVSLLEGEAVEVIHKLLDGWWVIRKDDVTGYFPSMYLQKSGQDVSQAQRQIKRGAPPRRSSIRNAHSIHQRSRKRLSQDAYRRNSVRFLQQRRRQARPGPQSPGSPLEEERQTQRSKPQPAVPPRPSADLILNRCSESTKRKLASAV

T1: recombinant MPT63 (rMPT63) (Mycobacterium tuberculosis H37Rv) (UniProt P9WIP1)
T1 sequence: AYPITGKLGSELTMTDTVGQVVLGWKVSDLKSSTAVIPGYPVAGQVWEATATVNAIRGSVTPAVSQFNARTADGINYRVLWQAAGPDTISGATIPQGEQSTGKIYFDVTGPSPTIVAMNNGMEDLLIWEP

T2: GST-MPT63 (Mycobacterium tuberculosis) (UniProt P9WIP1)
T2 sequence: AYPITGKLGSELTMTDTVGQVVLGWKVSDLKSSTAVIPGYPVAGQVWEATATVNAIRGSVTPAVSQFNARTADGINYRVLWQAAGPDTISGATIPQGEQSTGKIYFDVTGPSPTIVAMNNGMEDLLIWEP


Assays:
[1] = molecular target: T1, recombinant MPT63 (rMPT63) (Mycobacterium tuberculosis H37Rv); test: co-IP; only the target purified
[2] = molecular target: T2, GST-MPT63 (Mycobacterium tuberculosis); test: pull-down
[3] = molecular target: recombinant MPT64 (rMPT64) (Mycobacterium tuberculosis H37Rv) (UniProt P9WIN9); test: co-IP; only the target purified
[4] = molecular target: GST-MPT64 (Mycobacterium tuberculosis) (UniProt P9WIN9); test: pull-down

| Molecule | binding [1] | binding [3] | also measured |
| --- | --- | --- | --- |
| phosphorylated p47phox (S345 and S359), endogenous in THP-1 (from UniProt P14598 1-390) | binds |  |  |
| V5-p47phox (from UniProt P14598 1-390) |  |  | binding [2]: binds |
| Neutrophil cytosol factor 1 (p47phox), endogenous in THP-1 (from UniProt P14598 1-390) | binds |  |  |
| hexokinase 2 (HK2), endogenous in THP-1 (protein, UniProt P52789 1-917) MIASHLLAYFFTELNHDQVQKVDQYLYHMRLSDETLLEISKRFRKEMEKGLGATTHPTAAVKMLPTFVRSTPDGTEHGEFLALDLGGTNFRVLWVKVTDNGLQKVEMENQIYAIPEDIMRGSGTQLFDHIAECLANFMDKLQIKDKKLPLGFTFSFPCHQTKLDESFLVSWTKGFKSSGVEGRDVVALIRKAIQRRGDFDIDIVAVVNDTVGTMMTCGYDDHNCEIGLIVGTGSNACYMEEMRHIDMVEGDEGRMCINMEWGAFGDDGSLNDIRTEFDQEIDMGSLNPGKQLFEKMISGMYMGELVRLILVKMAKEELLFGGKLSPELLNTGRFETKDISDIEGEKDGIRKAREVLMRLGLDPTQEDCVATHRICQIVSTRSASLCAATLAAVLQRIKENKGEERLRSTIGVDGSVYKKHPHFAKRLHKTVRRLVPGCDVRFLRSEDGSGKGAAMVTAVAYRLADQHRARQKTLEHLQLSHDQLLEVKRRMKVEMERGLSKETHASAPVKMLPTYVCATPDGTEKGDFLALDLGGTNFRVLLVRVRNGKWGGVEMHNKIYAIPQEVMHGTGDELFDHIVQCIADFLEYMGMKGVSLPLGFTFSFPCQQNSLDESILLKWTKGFKASGCEGEDVVTLLKEAIHRREEFDLDVVAVVNDTVGTMMTCGFEDPHCEVGLIVGTGSNACYMEEMRNVELVEGEEGRMCVNMEWGAFGDNGCLDDFRTEFDVAVDELSLNPGKQRFEKMISGMYLGEIVRNILIDFTKRGLLFRGRISERLKTRGIFETKFLSQIESDCLALLQVRAILQHLGLESTCDDSIIVKEVCTVVARRAAQLCGAGMAAVVDRIRENRGLDALKVTVGVDGTLYKLHPHFAKVMHETVKDLAPKCDVSFLQSEDGSGKGAALITAVACRIREAGQR |  | binds |  |
| Flag-HK2 (protein, UniProt P52789 1-917) MIASHLLAYFFTELNHDQVQKVDQYLYHMRLSDETLLEISKRFRKEMEKGLGATTHPTAAVKMLPTFVRSTPDGTEHGEFLALDLGGTNFRVLWVKVTDNGLQKVEMENQIYAIPEDIMRGSGTQLFDHIAECLANFMDKLQIKDKKLPLGFTFSFPCHQTKLDESFLVSWTKGFKSSGVEGRDVVALIRKAIQRRGDFDIDIVAVVNDTVGTMMTCGYDDHNCEIGLIVGTGSNACYMEEMRHIDMVEGDEGRMCINMEWGAFGDDGSLNDIRTEFDQEIDMGSLNPGKQLFEKMISGMYMGELVRLILVKMAKEELLFGGKLSPELLNTGRFETKDISDIEGEKDGIRKAREVLMRLGLDPTQEDCVATHRICQIVSTRSASLCAATLAAVLQRIKENKGEERLRSTIGVDGSVYKKHPHFAKRLHKTVRRLVPGCDVRFLRSEDGSGKGAAMVTAVAYRLADQHRARQKTLEHLQLSHDQLLEVKRRMKVEMERGLSKETHASAPVKMLPTYVCATPDGTEKGDFLALDLGGTNFRVLLVRVRNGKWGGVEMHNKIYAIPQEVMHGTGDELFDHIVQCIADFLEYMGMKGVSLPLGFTFSFPCQQNSLDESILLKWTKGFKASGCEGEDVVTLLKEAIHRREEFDLDVVAVVNDTVGTMMTCGFEDPHCEVGLIVGTGSNACYMEEMRNVELVEGEEGRMCVNMEWGAFGDNGCLDDFRTEFDVAVDELSLNPGKQRFEKMISGMYLGEIVRNILIDFTKRGLLFRGRISERLKTRGIFETKFLSQIESDCLALLQVRAILQHLGLESTCDDSIIVKEVCTVVARRAAQLCGAGMAAVVDRIRENRGLDALKVTVGVDGTLYKLHPHFAKVMHETVKDLAPKCDVSFLQSEDGSGKGAALITAVACRIREAGQR |  |  | binding [4]: binds |
| TANK-binding kinase (TBK1), endogenous in THP-1 (protein, UniProt Q9UHD2 1-729) MQSTSNHLWLLSDILGQGATANVFRGRHKKTGDLFAIKVFNNISFLRPVDVQMREFEVLKKLNHKNIVKLFAIEEETTTRHKVLIMEFCPCGSLYTVLEEPSNAYGLPESEFLIVLRDVVGGMNHLRENGIVHRDIKPGNIMRVIGEDGQSVYKLTDFGAARELEDDEQFVSLYGTEEYLHPDMYERAVLRKDHQKKYGATVDLWSIGVTFYHAATGSLPFRPFEGPRRNKEVMYKIITGKPSGAISGVQKAENGPIDWSGDMPVSCSLSRGLQVLLTPVLANILEADQEKCWGFDQFFAETSDILHRMVIHVFSLQQMTAHKIYIHSYNTATIFHELVYKQTKIISSNQELIYEGRRLVLEPGRLAQHFPKTTEENPIFVVSREPLNTIGLIYEKISLPKVHPRYDLDGDASMAKAITGVVCYACRIASTLLLYQELMRKGIRWLIELIKDDYNETVHKKTEVVITLDFCIRNIEKTVKVYEKLMKINLEAAELGEISDIHTKLLRLSSSQGTIETSLQDIDSRLSPGGSLADAWAHQEGTHPKDRNVEKLQVLLNCMTEIYYQFKKDKAERRLAYNEEQIHKFDKQKLYYHATKAMTHFTDECVKKYEAFLNKSEEWIRKMLHLRKQLLSLTNQCFDIEEEVSKYQEYTNELQETLPQKMFTASSGIKHTMTPIYPSSNTLVEMTLGMKKLKEEMEGVVKELAENNHILERFGSLTMDGGLRNVDCL | binds | binds |  |
| Flag-TBK1 (protein, UniProt Q9UHD2 1-729) MQSTSNHLWLLSDILGQGATANVFRGRHKKTGDLFAIKVFNNISFLRPVDVQMREFEVLKKLNHKNIVKLFAIEEETTTRHKVLIMEFCPCGSLYTVLEEPSNAYGLPESEFLIVLRDVVGGMNHLRENGIVHRDIKPGNIMRVIGEDGQSVYKLTDFGAARELEDDEQFVSLYGTEEYLHPDMYERAVLRKDHQKKYGATVDLWSIGVTFYHAATGSLPFRPFEGPRRNKEVMYKIITGKPSGAISGVQKAENGPIDWSGDMPVSCSLSRGLQVLLTPVLANILEADQEKCWGFDQFFAETSDILHRMVIHVFSLQQMTAHKIYIHSYNTATIFHELVYKQTKIISSNQELIYEGRRLVLEPGRLAQHFPKTTEENPIFVVSREPLNTIGLIYEKISLPKVHPRYDLDGDASMAKAITGVVCYACRIASTLLLYQELMRKGIRWLIELIKDDYNETVHKKTEVVITLDFCIRNIEKTVKVYEKLMKINLEAAELGEISDIHTKLLRLSSSQGTIETSLQDIDSRLSPGGSLADAWAHQEGTHPKDRNVEKLQVLLNCMTEIYYQFKKDKAERRLAYNEEQIHKFDKQKLYYHATKAMTHFTDECVKKYEAFLNKSEEWIRKMLHLRKQLLSLTNQCFDIEEEVSKYQEYTNELQETLPQKMFTASSGIKHTMTPIYPSSNTLVEMTLGMKKLKEEMEGVVKELAENNHILERFGSLTMDGGLRNVDCL |  |  | binding [2]: binds; binding [4]: binds |
| phosphorylated TBK1 (S172), endogenous in THP-1 (protein, UniProt Q9UHD2 1-729, phosphoserine at 172) MQSTSNHLWLLSDILGQGATANVFRGRHKKTGDLFAIKVFNNISFLRPVDVQMREFEVLKKLNHKNIVKLFAIEEETTTRHKVLIMEFCPCGSLYTVLEEPSNAYGLPESEFLIVLRDVVGGMNHLRENGIVHRDIKPGNIMRVIGEDGQSVYKLTDFGAARELEDDEQFVSLYGTEEYLHPDMYERAVLRKDHQKKYGATVDLWSIGVTFYHAATGSLPFRPFEGPRRNKEVMYKIITGKPSGAISGVQKAENGPIDWSGDMPVSCSLSRGLQVLLTPVLANILEADQEKCWGFDQFFAETSDILHRMVIHVFSLQQMTAHKIYIHSYNTATIFHELVYKQTKIISSNQELIYEGRRLVLEPGRLAQHFPKTTEENPIFVVSREPLNTIGLIYEKISLPKVHPRYDLDGDASMAKAITGVVCYACRIASTLLLYQELMRKGIRWLIELIKDDYNETVHKKTEVVITLDFCIRNIEKTVKVYEKLMKINLEAAELGEISDIHTKLLRLSSSQGTIETSLQDIDSRLSPGGSLADAWAHQEGTHPKDRNVEKLQVLLNCMTEIYYQFKKDKAERRLAYNEEQIHKFDKQKLYYHATKAMTHFTDECVKKYEAFLNKSEEWIRKMLHLRKQLLSLTNQCFDIEEEVSKYQEYTNELQETLPQKMFTASSGIKHTMTPIYPSSNTLVEMTLGMKKLKEEMEGVVKELAENNHILERFGSLTMDGGLRNVDCL | binds | binds |  |
